Experimental data taken from the supplement of paper PMC12823440, “Inhibitors supercharge kinase turnover through native proteolytic circuits” (Nature, 2025).
Where a name gives a salt, the structure may show the parent alone. This is one part of the list. Hit calls seldom repeat between salt and free forms of one compound.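 In K562 cells expressing nanoluciferase-fused kinases, luminescence was recorded at 4 h intervals between 2 and 18 h, normalized as percent of control with DMSO at 100% and a positive control at 0%. A significant (2 sigma) signal drop marks a time point as decreased. The authors' rule for a hit is not shown and takes in more than the number of time points.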

Amino acid sequences for entries named in this document (tags omitted). A change or cut given only in a name is not applied to a line headed by its entry.
UniProt P31749: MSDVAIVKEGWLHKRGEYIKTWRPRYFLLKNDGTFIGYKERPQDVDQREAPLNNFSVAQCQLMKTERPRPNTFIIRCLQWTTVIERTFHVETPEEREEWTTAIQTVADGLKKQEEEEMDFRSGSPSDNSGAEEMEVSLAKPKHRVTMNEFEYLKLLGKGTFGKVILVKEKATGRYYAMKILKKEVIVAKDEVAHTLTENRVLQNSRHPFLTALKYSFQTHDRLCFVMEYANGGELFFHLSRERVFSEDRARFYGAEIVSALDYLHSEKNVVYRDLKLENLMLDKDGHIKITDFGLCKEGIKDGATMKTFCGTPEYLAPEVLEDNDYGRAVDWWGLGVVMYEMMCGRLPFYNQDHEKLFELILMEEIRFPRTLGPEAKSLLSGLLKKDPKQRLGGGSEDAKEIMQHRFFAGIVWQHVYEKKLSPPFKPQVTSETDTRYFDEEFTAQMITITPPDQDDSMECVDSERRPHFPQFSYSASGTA
UniProt Q9UM73: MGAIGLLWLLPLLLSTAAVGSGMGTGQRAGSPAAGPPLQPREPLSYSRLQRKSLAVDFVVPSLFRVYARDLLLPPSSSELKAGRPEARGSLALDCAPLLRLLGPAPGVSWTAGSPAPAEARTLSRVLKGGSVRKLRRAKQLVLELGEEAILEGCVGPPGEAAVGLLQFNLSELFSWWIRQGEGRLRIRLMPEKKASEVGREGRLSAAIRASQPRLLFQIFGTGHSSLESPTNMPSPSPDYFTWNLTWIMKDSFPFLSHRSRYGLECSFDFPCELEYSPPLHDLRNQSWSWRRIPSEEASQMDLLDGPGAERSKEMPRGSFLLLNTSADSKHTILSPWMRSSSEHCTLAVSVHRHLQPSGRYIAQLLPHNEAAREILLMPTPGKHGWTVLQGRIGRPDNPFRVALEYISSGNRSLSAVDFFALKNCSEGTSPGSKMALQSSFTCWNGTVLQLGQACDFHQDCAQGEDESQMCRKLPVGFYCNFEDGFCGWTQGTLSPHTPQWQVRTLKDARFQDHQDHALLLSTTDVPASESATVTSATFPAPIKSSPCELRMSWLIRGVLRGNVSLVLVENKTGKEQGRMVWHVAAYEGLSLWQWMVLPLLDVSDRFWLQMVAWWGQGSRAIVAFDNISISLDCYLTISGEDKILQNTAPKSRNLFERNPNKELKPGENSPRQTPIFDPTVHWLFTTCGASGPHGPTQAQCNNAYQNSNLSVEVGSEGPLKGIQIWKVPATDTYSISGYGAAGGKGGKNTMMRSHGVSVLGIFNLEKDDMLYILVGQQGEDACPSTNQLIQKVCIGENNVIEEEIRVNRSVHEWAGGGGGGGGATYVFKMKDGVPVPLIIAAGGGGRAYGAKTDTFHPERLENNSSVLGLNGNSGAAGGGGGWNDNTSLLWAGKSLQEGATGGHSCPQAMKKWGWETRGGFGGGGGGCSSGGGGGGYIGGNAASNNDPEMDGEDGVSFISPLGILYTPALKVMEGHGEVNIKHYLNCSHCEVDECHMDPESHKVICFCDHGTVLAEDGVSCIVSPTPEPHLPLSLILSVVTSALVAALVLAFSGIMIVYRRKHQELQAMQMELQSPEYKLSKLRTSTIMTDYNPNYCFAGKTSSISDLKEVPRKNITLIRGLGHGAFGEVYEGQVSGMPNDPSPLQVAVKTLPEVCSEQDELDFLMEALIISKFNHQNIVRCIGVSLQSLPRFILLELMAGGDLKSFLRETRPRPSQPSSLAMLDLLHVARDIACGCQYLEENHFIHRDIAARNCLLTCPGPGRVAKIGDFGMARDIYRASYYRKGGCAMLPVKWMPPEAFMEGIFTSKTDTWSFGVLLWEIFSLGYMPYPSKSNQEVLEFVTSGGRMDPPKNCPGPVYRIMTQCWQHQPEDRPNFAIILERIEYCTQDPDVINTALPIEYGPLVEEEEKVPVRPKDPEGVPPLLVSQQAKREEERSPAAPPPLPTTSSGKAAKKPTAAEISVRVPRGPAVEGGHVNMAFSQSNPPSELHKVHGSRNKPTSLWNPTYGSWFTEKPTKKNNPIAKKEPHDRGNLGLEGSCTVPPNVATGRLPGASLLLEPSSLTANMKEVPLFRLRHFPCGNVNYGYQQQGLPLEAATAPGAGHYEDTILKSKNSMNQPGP
UniProt P10398: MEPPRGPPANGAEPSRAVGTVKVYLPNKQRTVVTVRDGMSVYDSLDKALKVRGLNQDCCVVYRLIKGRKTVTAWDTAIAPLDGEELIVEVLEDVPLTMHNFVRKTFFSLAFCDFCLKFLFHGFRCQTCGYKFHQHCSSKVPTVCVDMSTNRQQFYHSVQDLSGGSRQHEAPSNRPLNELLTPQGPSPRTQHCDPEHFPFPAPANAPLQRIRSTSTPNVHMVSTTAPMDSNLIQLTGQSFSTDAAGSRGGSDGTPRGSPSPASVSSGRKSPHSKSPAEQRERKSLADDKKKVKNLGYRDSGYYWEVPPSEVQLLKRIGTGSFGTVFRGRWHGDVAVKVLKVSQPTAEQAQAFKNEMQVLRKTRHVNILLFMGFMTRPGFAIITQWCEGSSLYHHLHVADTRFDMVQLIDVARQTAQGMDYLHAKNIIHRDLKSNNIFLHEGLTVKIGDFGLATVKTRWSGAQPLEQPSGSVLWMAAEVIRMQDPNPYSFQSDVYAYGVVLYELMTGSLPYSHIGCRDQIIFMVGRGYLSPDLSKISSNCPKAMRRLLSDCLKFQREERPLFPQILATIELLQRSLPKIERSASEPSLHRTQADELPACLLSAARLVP
UniProt Q96GD4, whole entry: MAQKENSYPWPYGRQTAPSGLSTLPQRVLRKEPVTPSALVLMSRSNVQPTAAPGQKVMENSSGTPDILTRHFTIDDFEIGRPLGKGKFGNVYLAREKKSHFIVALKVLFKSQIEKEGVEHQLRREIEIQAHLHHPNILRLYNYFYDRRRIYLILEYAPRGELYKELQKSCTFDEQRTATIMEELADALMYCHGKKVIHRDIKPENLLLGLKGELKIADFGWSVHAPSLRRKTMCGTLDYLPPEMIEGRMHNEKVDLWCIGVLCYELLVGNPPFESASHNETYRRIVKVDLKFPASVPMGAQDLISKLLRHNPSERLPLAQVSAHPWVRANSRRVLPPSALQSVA
UniProt Q9UQB9: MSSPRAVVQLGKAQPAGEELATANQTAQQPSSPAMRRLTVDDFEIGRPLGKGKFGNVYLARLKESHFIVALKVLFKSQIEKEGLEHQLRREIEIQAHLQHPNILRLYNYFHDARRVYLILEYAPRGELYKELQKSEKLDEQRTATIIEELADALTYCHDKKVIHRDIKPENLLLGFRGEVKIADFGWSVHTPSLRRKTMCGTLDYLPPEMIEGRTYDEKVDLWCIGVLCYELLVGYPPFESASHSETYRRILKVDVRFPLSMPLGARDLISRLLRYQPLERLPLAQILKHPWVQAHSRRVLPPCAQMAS
UniProt P51451: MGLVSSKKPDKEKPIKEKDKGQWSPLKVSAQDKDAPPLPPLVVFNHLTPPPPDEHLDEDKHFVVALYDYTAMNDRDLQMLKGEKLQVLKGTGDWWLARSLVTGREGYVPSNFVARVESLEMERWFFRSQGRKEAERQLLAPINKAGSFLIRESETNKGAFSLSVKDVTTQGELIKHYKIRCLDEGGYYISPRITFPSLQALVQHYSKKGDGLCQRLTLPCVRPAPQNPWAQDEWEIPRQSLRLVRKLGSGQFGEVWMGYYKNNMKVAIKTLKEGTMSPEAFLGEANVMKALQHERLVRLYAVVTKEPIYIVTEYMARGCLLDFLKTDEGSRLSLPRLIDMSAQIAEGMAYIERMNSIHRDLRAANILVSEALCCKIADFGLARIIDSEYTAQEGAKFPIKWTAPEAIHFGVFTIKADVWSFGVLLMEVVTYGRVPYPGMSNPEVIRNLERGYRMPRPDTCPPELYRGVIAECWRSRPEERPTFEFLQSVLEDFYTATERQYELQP
UniProt P51813: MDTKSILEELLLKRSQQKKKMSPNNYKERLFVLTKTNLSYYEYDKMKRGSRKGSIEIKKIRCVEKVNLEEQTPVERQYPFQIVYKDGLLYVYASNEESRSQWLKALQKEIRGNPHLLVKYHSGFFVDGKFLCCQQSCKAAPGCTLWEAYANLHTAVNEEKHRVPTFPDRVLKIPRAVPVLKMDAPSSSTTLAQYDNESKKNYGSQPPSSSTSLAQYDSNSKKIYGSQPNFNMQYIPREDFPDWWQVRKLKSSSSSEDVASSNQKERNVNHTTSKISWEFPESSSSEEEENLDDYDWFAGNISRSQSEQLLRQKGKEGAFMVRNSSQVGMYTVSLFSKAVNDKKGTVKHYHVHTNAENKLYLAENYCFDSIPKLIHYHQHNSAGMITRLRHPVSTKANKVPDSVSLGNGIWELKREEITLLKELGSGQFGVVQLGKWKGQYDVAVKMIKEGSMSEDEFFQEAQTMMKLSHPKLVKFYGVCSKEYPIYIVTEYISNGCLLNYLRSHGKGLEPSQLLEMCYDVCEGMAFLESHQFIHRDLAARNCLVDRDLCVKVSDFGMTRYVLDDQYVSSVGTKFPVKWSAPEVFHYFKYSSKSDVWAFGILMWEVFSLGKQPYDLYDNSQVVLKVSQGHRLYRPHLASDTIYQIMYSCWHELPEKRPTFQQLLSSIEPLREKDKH
UniProt Q06187: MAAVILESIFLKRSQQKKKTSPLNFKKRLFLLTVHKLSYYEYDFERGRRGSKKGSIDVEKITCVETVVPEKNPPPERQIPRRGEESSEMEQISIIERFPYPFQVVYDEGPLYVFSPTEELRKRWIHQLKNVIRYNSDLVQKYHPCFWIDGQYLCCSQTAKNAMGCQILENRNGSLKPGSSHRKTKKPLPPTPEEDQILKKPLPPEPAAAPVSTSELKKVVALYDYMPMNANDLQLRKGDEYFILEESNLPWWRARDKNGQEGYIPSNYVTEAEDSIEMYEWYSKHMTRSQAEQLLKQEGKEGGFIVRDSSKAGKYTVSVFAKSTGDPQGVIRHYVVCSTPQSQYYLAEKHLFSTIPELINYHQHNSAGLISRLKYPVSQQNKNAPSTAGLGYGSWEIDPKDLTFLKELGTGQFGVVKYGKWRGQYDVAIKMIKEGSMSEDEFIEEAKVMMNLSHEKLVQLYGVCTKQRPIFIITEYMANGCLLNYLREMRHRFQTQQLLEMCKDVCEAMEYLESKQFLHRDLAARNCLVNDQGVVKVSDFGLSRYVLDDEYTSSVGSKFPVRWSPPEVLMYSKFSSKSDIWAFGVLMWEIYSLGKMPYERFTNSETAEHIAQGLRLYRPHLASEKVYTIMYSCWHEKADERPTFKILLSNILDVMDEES
UniProt Q00526: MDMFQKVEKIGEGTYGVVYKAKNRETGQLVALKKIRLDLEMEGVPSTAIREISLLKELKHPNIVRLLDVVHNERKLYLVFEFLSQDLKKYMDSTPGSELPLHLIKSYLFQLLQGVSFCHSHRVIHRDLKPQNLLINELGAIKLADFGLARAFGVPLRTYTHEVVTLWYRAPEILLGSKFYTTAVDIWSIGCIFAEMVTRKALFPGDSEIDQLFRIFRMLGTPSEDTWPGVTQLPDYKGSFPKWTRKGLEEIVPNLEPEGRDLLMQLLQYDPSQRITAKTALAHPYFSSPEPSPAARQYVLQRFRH
UniProt P11802: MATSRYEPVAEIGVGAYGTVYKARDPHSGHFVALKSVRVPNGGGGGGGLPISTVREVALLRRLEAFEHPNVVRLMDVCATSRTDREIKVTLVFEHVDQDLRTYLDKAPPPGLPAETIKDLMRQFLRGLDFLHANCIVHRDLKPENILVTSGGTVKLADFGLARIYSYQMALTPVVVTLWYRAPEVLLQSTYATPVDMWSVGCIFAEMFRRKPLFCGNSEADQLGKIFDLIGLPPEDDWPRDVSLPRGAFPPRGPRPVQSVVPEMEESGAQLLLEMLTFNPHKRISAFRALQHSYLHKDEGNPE
UniProt Q00535, whole entry, looked up: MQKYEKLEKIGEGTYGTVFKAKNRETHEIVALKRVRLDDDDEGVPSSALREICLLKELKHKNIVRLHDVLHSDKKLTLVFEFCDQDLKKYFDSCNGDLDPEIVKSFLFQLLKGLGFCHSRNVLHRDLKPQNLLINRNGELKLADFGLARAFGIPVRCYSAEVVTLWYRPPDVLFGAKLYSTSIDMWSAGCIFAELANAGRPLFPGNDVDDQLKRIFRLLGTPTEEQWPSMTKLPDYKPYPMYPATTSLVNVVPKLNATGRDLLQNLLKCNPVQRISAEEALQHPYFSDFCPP
UniProt Q00534, whole entry: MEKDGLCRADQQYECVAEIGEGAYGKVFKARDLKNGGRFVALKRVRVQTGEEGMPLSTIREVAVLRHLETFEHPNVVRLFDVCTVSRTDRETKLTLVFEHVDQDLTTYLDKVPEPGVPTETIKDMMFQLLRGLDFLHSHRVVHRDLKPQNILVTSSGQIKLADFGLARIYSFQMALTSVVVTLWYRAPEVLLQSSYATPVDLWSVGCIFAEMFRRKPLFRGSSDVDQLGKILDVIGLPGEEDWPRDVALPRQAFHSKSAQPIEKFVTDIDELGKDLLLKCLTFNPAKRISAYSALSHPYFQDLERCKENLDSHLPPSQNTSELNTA

What was measured:
Test in all cases: kinase-Nluc reporter destabilization hit call (1 = scored as downregulated) (binary); higher = compound decreases kinase abundance
Settings in all cases: K562, 2-18 h
[1] = target: ABL1 (UniProt P00519)
[2] = target: AKT1 (UniProt P31749)
[3] = target: ALK (UniProt Q9UM73)
[4] = target: ARAF (UniProt P10398)
[5] = target: AURKA (UniProt O14965)
[6] = target: AURKB (UniProt Q96GD4)
[7] = target: AURKC (UniProt Q9UQB9)
[8] = target: BLK (UniProt P51451)
[9] = target: BMX (UniProt P51813)
[10] = target: BRAF (UniProt P15056)
[11] = test system: BRAF_V600E
[12] = target: BTK (UniProt Q06187)
[13] = target: CAMK2A (UniProt Q9UQM7)
[14] = target: CAMK2G (UniProt Q13555)
[15] = target: CDK10 (UniProt Q15131)
[16] = target: CDK2 (UniProt P24941)
[17] = target: CDK3 (UniProt Q00526)
[18] = target: CDK4 (UniProt P11802)
[19] = target: CDK5 (UniProt Q00535)
[20] = target: CDK6 (UniProt Q00534)

Measured: kinase-Nluc reporter destabilization hit call

C=CC(=O)Nc1cc(Nc2ncc(C(=O)OC(C)C)c(-c3cn(C)c4ccccc34)n2)c(OC)cc1N(C)CCN(C)C [Mobocertinib (succinate)]
inactive: [1]; 10 µM 0 | [2]; 10 µM 0 | [3]; 10 µM 0 | [4]; 10 µM 0 | [5]; 10 µM 0 | [6]; 10 µM 0 | [7]; 10 µM 0 | [8]; 10 µM 0 | [9]; 10 µM 0 | [10]; 10 µM 0 | [11]; 10 µM 0 | [12]; 10 µM 0 | [13]; 10 µM 0 | [14]; 10 µM 0 | [15]; 10 µM 0 | [16]; 10 µM 0 | [17]; 10 µM 0 | [18]; 10 µM 0 | [19]; 10 µM 0 | [20]; 10 µM 0

CC(C)Oc1ccc(-c2nn([C@@H](C)c3oc4ccc(F)cc4c(=O)c3-c3cccc(F)c3)c3ncnc(N)c23)cc1F [Umbralisib (hydrochloride)]
inactive: [1]; 2.5 µM 0 | [2]; 2.5 µM 0 | [3]; 2.5 µM 0 | [4]; 2.5 µM 0 | [5]; 2.5 µM 0 | [6]; 2.5 µM 0 | [7]; 2.5 µM 0 | [8]; 2.5 µM 0 | [9]; 2.5 µM 0 | [10]; 2.5 µM 0 | [11]; 2.5 µM 0 | [12]; 2.5 µM 0 | [13]; 2.5 µM 0 | [14]; 2.5 µM 0 | [15]; 2.5 µM 0 | [16]; 2.5 µM 0 | [17]; 2.5 µM 0 | [18]; 2.5 µM 0 | [19]; 2.5 µM 0 | [20]; 2.5 µM 0

C#Cc1cccc(Nc2ncnc3cc4c(cc23)OCCOCCOCCO4)c1 [Icotinib (Hydrochloride)]
inactive: [1]; 10 µM 0 | [2]; 10 µM 0 | [3]; 10 µM 0 | [4]; 10 µM 0 | [5]; 10 µM 0 | [6]; 10 µM 0 | [7]; 10 µM 0 | [8]; 10 µM 0 | [9]; 10 µM 0 | [10]; 10 µM 0 | [11]; 10 µM 0 | [12]; 10 µM 0 | [13]; 10 µM 0 | [14]; 10 µM 0 | [15]; 10 µM 0 | [16]; 10 µM 0 | [17]; 10 µM 0 | [18]; 10 µM 0 | [19]; 10 µM 0 | [20]; 10 µM 0

C#Cc1cccc(Nc2ncnc3cc4c(cc23)OCCOCCOCCO4)c1 [Icotinib]
inactive: [1]; 10 µM 0 | [2]; 10 µM 0 | [3]; 10 µM 0 | [4]; 10 µM 0 | [5]; 10 µM 0 | [6]; 10 µM 0 | [7]; 10 µM 0 | [8]; 10 µM 0 | [9]; 10 µM 0 | [10]; 10 µM 0 | [11]; 10 µM 0 | [12]; 10 µM 0 | [13]; 10 µM 0 | [14]; 10 µM 0 | [15]; 10 µM 0 | [16]; 10 µM 0 | [17]; 10 µM 0 | [18]; 10 µM 0 | [19]; 10 µM 0 | [20]; 10 µM 0

CCc1nc(C(N)=O)c(Nc2ccc(N3CCC(N4CCN(C)CC4)CC3)c(OC)c2)nc1NC1CCOCC1 [Gilteritinib]
inactive: [1]; 2 µM 0 | [2]; 2 µM 0 | [3]; 2 µM 0 | [4]; 2 µM 0 | [5]; 2 µM 0 | [6]; 2 µM 0 | [7]; 2 µM 0 | [8]; 2 µM 0 | [9]; 2 µM 0 | [10]; 2 µM 0 | [11]; 2 µM 0 | [12]; 2 µM 0 | [13]; 2 µM 0 | [14]; 2 µM 0 | [15]; 2 µM 0 | [16]; 2 µM 0 | [17]; 2 µM 0 | [18]; 2 µM 0 | [19]; 2 µM 0 | [20]; 2 µM 0

CCS(=O)(=O)N1CCN(c2ccc(Nc3ncc(C(N)=O)c(NC4CC4)n3)cc2)CC1 [Cerdulatinib]
inactive: [1]; 10 µM 0 | [2]; 10 µM 0 | [3]; 10 µM 0 | [4]; 10 µM 0 | [5]; 10 µM 0 | [6]; 10 µM 0 | [7]; 10 µM 0 | [8]; 10 µM 0 | [9]; 10 µM 0 | [10]; 10 µM 0 | [11]; 10 µM 0 | [12]; 10 µM 0 | [13]; 10 µM 0 | [14]; 10 µM 0 | [15]; 10 µM 0 | [17]; 10 µM 0 | [18]; 10 µM 0 | [19]; 10 µM 0 | [20]; 10 µM 0

COc1ccnc(C[S+]([O-])c2nc3cc(-n4cccc4)ccc3[nH]2)c1C (centres undefined) [Ilaprazole]
inactive: [1]; 10 µM 0 | [2]; 10 µM 0 | [3]; 10 µM 0 | [4]; 10 µM 0 | [5]; 10 µM 0 | [6]; 10 µM 0 | [7]; 10 µM 0 | [8]; 10 µM 0 | [9]; 10 µM 0 | [10]; 10 µM 0 | [11]; 10 µM 0 | [12]; 10 µM 0 | [13]; 10 µM 0 | [14]; 10 µM 0 | [15]; 10 µM 0 | [16]; 10 µM 0 | [17]; 10 µM 0 | [18]; 10 µM 0 | [19]; 10 µM 0 | [20]; 10 µM 0

CNc1ncc2cc(-c3ccc(-c4cccc(C)n4)cc3Cl)c(=O)n(C[C@H]3OC[C@H](N)CO3)c2n1 [G-5555 (hydrochloride)]
inactive: [1]; 10 µM 0 | [2]; 10 µM 0 | [3]; 10 µM 0 | [4]; 10 µM 0 | [5]; 10 µM 0 | [6]; 10 µM 0 | [7]; 10 µM 0 | [8]; 10 µM 0 | [9]; 10 µM 0 | [10]; 10 µM 0 | [11]; 10 µM 0 | [12]; 10 µM 0 | [13]; 10 µM 0 | [14]; 10 µM 0 | [15]; 10 µM 0 | [16]; 10 µM 0 | [17]; 10 µM 0 | [18]; 10 µM 0 | [19]; 10 µM 0 | [20]; 10 µM 0

Pulled one by one from the list above, two records:
C#Cc1cccc(Nc2ncnc3cc4c(cc23)OCCOCCOCCO4)c1 [Icotinib]
inactive: [1]; 10 µM 0 | [2]; 10 µM 0 | [3]; 10 µM 0 | [4]; 10 µM 0 | [5]; 10 µM 0 | [6]; 10 µM 0 | [7]; 10 µM 0 | [8]; 10 µM 0 | [9]; 10 µM 0 | [10]; 10 µM 0 | [11]; 10 µM 0 | [12]; 10 µM 0 | [13]; 10 µM 0 | [14]; 10 µM 0 | [15]; 10 µM 0 | [16]; 10 µM 0 | [17]; 10 µM 0 | [18]; 10 µM 0 | [19]; 10 µM 0 | [20]; 10 µM 0

CCc1nc(C(N)=O)c(Nc2ccc(N3CCC(N4CCN(C)CC4)CC3)c(OC)c2)nc1NC1CCOCC1 [Gilteritinib]
inactive: [1]; 2 µM 0 | [2]; 2 µM 0 | [3]; 2 µM 0 | [4]; 2 µM 0 | [5]; 2 µM 0 | [6]; 2 µM 0 | [7]; 2 µM 0 | [8]; 2 µM 0 | [9]; 2 µM 0 | [10]; 2 µM 0 | [11]; 2 µM 0 | [12]; 2 µM 0 | [13]; 2 µM 0 | [14]; 2 µM 0 | [15]; 2 µM 0 | [16]; 2 µM 0 | [17]; 2 µM 0 | [18]; 2 µM 0 | [19]; 2 µM 0 | [20]; 2 µM 0
